Sequences and labels used below:
B1: tRNA (parent)
chain: GUUCCGUUGGCGUAAUGGUAACGCGUCUCCCUCCUAAGGAGAAGACUGCGGGUUCGAGUCCCGUACGGAACG

Variants at the floor of the assay are shown more often than the library holds them. A value given as a limit tells only on which side of the number the result lay.

This series covers variants of B1. Briefly: yeast fitness relative to wild type (ratio to wild type); higher = fitter; tRNA-Arg(CCU), competitive growth, 37 C, YPD. An outline of the steps: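 A pool of Saccharomyces cerevisiae strains, each with a tRNA-Arg(CCU) gene variant at the native genomic locus, was competed in YPD at 37°C for 24 hours across six parallel replicates. The variants had been chemically synthesised at a 3% per-site mutation rate over 69 sites, and gene amplicons before and after competition were read by 100-nucleotide paired-end sequencing. Darwinian fitness relative to wild type rested on changes in genotype frequencies. Genotypes required ≥ 100 starting reads, and estimates < 0.5 were set to 0.5.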
Regarding C4U U26C U35G A43C U47C C55U A69C, the yeast fitness was ≤ 0.5.

Take U16A C31A C33G G38A C66U: the yeast fitness is ≤ 0.5.

For A21U C30A C34G, the yeast fitness was ≤ 0.5.

Consider C29G G41A A43U A65U, for which the yeast fitness is ≤ 0.5.

On to U16C U35C A70U, for which the yeast fitness was ≤ 0.5.

Consider C5U A20C C29A C62A A70C, for which the yeast fitness is ≤ 0.5.

In the case of C27U G39C C60A, the yeast fitness was ≤ 0.5.

As to U16C C22G C34U U59A, the yeast fitness was ≤ 0.5.

As to A20G U47G C49A A69U, the yeast fitness was ≤ 0.5.

In the case of G38C C66U G67A, the yeast fitness was ≤ 0.5.

For A20G U59A A70C, the yeast fitness worked out at 0.646.

In the case of U3C C29G U47A, the yeast fitness was ≤ 0.5.

Regarding U2C U28G A43U G56C A57U G67A, the yeast fitness was ≤ 0.5.

In the case of C11A C33A, the yeast fitness is ≤ 0.5.

With C5A C11G G23C C29U G56C C61A, the yeast fitness is ≤ 0.5.

Take C22A C33G A43C G56C A69U: the yeast fitness was ≤ 0.5.

Turning to G6C U8C C27U G48A A57G, the yeast fitness was ≤ 0.5.

For the variant C5U A20G C31U G52C, the yeast fitness was ≤ 0.5.

Turning to A15G C33U A45U C62A, the yeast fitness was ≤ 0.5.

For the variant U8G G18C A37G A40G A57C, the yeast fitness was ≤ 0.5.

As to G10C U13A C31A, the yeast fitness is 0.594.

Regarding A14G A20C A36U G39C, the yeast fitness is ≤ 0.5.

As to C22G G23U C62U G68A, the yeast fitness was ≤ 0.5.

As to C5U C22A A40C A45G U54A, the yeast fitness was ≤ 0.5.

For the variant U2A G9C U35A A36G, the yeast fitness was ≤ 0.5.

Regarding C5U G17C C30A G50A C66G, the yeast fitness is ≤ 0.5.

On to G12C A43G G51C U59C C62G, for which the yeast fitness was ≤ 0.5.

In the case of A14U A37U A70U, the yeast fitness was ≤ 0.5.

C11A U13A A42U A43G C55A: the yeast fitness is ≤ 0.5.

In the case of U8G U19G A20C C24G A36U C46U, the yeast fitness is ≤ 0.5.

In the case of G12C G25A A45C C66U, the yeast fitness was ≤ 0.5.

Regarding C5U C27U G41A, the yeast fitness turned out to be 0.573.

On to A43C A57U G68C, for which the yeast fitness was ≤ 0.5.

As to C24A C27G C29A A70G, the yeast fitness was ≤ 0.5.

For the variant A20C C27A C30A C31U, the yeast fitness was ≤ 0.5.

Regarding A20U C29G C49G G63C C66U, the yeast fitness is ≤ 0.5.

As for U3C U8C A14G U28G A36U C46U C62G G68C, the yeast fitness is ≤ 0.5.

Take G10A G17A C31G G67C: the yeast fitness was ≤ 0.5.

For the variant C11G C27G G67A, the yeast fitness is ≤ 0.5.

Turning to C4A A37U A69C A70C, the yeast fitness is ≤ 0.5.

Consider C4G G23C C55U A70U, for which the yeast fitness was ≤ 0.5.

With C5G U16A U19G A20C C27U C29U C30U A70C, the yeast fitness is ≤ 0.5.

For the variant A14U C30A A65C, the yeast fitness was ≤ 0.5.

For the variant U8C C55G C60U, the yeast fitness is ≤ 0.5.

For the variant C24A G52A C55U, the yeast fitness was ≤ 0.5.

In the case of C5A G41A C55A, the yeast fitness is ≤ 0.5.

As to C11U G38C, the yeast fitness was 0.715.

Consider U3C U19G A21C C55G U59A, for which the yeast fitness is ≤ 0.5.

For G10A C33U C49A, the yeast fitness is ≤ 0.5.

With G12C A15G A37U A40G U54C A70G, the yeast fitness is ≤ 0.5.

With C4G U54A U59A G67A, the yeast fitness was ≤ 0.5.

G10A G51C C60U G67A: the yeast fitness was ≤ 0.5.

C5G G12A C49G G68C: the yeast fitness is ≤ 0.5.

Turning to A14C A20G C27G, the yeast fitness is ≤ 0.5.

Take C31A A42G A43U G56C: the yeast fitness is ≤ 0.5.

Regarding U26C U54A C66A, the yeast fitness is ≤ 0.5.

Regarding C27G A40G, the yeast fitness amounted to 0.594.

Take G10A G51A C66U: the yeast fitness is ≤ 0.5.

With G6A U16G A21G A40G A42U C55A A69C, the yeast fitness was ≤ 0.5.

Turning to A43C C62G G63A C66G A69G, the yeast fitness was ≤ 0.5.

Consider U26C C31U U53A C66A, for which the yeast fitness was ≤ 0.5.

For C5A G63U, the yeast fitness was found to be 0.722.

For the variant C33G U35C, the yeast fitness turned out to be 0.603.

As for C24A A36U, the yeast fitness is ≤ 0.5.

Take A14G C24G G44C G58C G68U: the yeast fitness was ≤ 0.5.

Take C11G A14G G18C A20U C33U: the yeast fitness was ≤ 0.5.

In the case of U16A A37U G63A, the yeast fitness is ≤ 0.5.

Take C5A C33G C61G A69C: the yeast fitness is ≤ 0.5.

Take G23A C33G C49U A70U: the yeast fitness is ≤ 0.5.

In the case of G9A G50A C55U, the yeast fitness came out at 0.59.

Consider U2C C4A G18C G63A, for which the yeast fitness turned out to be 0.633.

As for C5A U8C, the yeast fitness was found to be 0.929.

As to A40C A57U G58A G67A, the yeast fitness is ≤ 0.5.

U19C C31G A65U: the yeast fitness stood at 0.596.

For U2G G56A, the yeast fitness was found to be 0.896.

As for U7G C33A A36U A57G, the yeast fitness is ≤ 0.5.

As for G18C C22G C66U, the yeast fitness was ≤ 0.5.

On to U19A A21G, for which the yeast fitness was 0.987.

With G6A C11G A21G C27G C29U C61U, the yeast fitness is ≤ 0.5.

Take C34G G48A A57G: the yeast fitness amounted to 0.631.

Take U7C G41A A42C G50C A65C: the yeast fitness is ≤ 0.5.

A42U C55A G67A: the yeast fitness is ≤ 0.5.

U2C A43C A57C: the yeast fitness was ≤ 0.5.

Consider A20U C34A G38A U59A, for which the yeast fitness was ≤ 0.5.

As to U16A U59C A65G A69C, the yeast fitness was ≤ 0.5.

For the variant C5G U13G A45U A69C, the yeast fitness is ≤ 0.5.

With A14C A21G G25A C33U C46A C55A, the yeast fitness was ≤ 0.5.

Consider C4G U35G A42C, for which the yeast fitness was ≤ 0.5.

Take U3A C33G G67A: the yeast fitness was ≤ 0.5.

Take G51A G56A G63C: the yeast fitness is ≤ 0.5.

G6A G12A C30G A40U: the yeast fitness was ≤ 0.5.

For the variant A43G C49U G52A C55G C66G A70C, the yeast fitness was ≤ 0.5.

In the case of G17C G25C C29G A36U G39A C46U, the yeast fitness is ≤ 0.5.

With A43C G68C, the yeast fitness turned out to be 0.72.

With A15C U16C C31G G38C, the yeast fitness is ≤ 0.5.

Take A65C A69C A70G: the yeast fitness is 0.554.

Take U8C C22U: the yeast fitness worked out at 0.768.

Consider C11U C29U C46G C49U, for which the yeast fitness is ≤ 0.5.

With C5G A15G C24G U32A C34G G68A A69U A70U, the yeast fitness was 0.516.

A21U C34A G50C G67A: the yeast fitness was ≤ 0.5.

Regarding C27G A45C G52A A57G, the yeast fitness is ≤ 0.5.

G6C U13C C31G C33A: the yeast fitness was ≤ 0.5.

With U8A A43G U53C C55U, the yeast fitness was ≤ 0.5.

Take A14C G23A A45U C61U: the yeast fitness stood at 0.782.

G9C G23A G50A: the yeast fitness was ≤ 0.5.

Take U7C A15G A65U A70U: the yeast fitness is ≤ 0.5.

Consider C27G A36G A65G, for which the yeast fitness is ≤ 0.5.

With G17C A20C C49U G52A C61A C62G, the yeast fitness was ≤ 0.5.

Take C11G U35C: the yeast fitness is ≤ 0.5.

Take U28C A42C C60U: the yeast fitness was found to be 0.589.

Regarding U26C G48C C60A, the yeast fitness was ≤ 0.5.

Consider A15G G17C C61U, for which the yeast fitness was ≤ 0.5.

As to U7C U26A A57C G67A A69U, the yeast fitness is ≤ 0.5.

In the case of U19C G23C U53C G67C, the yeast fitness is ≤ 0.5.

With U16A C22A C24G A69U, the yeast fitness was ≤ 0.5.

As to G10C A42U C46G, the yeast fitness was ≤ 0.5.

Regarding U7A C30U A57G, the yeast fitness is ≤ 0.5.

On to U7A G17A C24U C34A A40G C49G, for which the yeast fitness was ≤ 0.5.

Take U35G A43G: the yeast fitness is 0.725.

Consider U32A C33G C60A, for which the yeast fitness is ≤ 0.5.

Turning to C5G A20G C60A A70C, the yeast fitness was ≤ 0.5.

For G48C C49U C55U, the yeast fitness came out at 0.663.

As for U8A G18C G41A, the yeast fitness was ≤ 0.5.

As for C11U C22G A40U A43G G48C G51C A57G C61G, the yeast fitness was ≤ 0.5.

With C34A A40G, the yeast fitness stood at 0.609.

In the case of C30U U47G, the yeast fitness stood at 0.588.

With U28A U35G G63C C66G, the yeast fitness is ≤ 0.5.

Regarding U32A C33G A43G, the yeast fitness is ≤ 0.5.

C46G C62A A69C: the yeast fitness was ≤ 0.5.

As for C11U A14C C22U C30U A43C, the yeast fitness is ≤ 0.5.

On to G9C A15U C24U, for which the yeast fitness was ≤ 0.5.

Regarding U2C C29G C30G G48C, the yeast fitness is ≤ 0.5.

Regarding C61U C66G, the yeast fitness stood at 0.706.

For G12C A15C A20U A70C, the yeast fitness is ≤ 0.5.

On to C4G C27U G58C, for which the yeast fitness stood at 0.71.

Take U3A A14C: the yeast fitness stood at 0.567.

As to A42C U53C C61A G68A, the yeast fitness was ≤ 0.5.

G18A G39C U59G: the yeast fitness is ≤ 0.5.

For the variant G44A C55G, the yeast fitness worked out at 0.558.

As to C5U G25A C29A C55G, the yeast fitness is ≤ 0.5.

As for U16G G23A C34G, the yeast fitness was ≤ 0.5.

Regarding C4G G9C G41A C55U, the yeast fitness was ≤ 0.5.

Regarding U3A C46G, the yeast fitness worked out at 0.982.

For C11G C29G G38A G44A C46U, the yeast fitness is ≤ 0.5.

As to C5U A14U G56A, the yeast fitness was ≤ 0.5.

For C5G A21U C60A, the yeast fitness is ≤ 0.5.

Regarding G6A U8C A69C, the yeast fitness worked out at 0.678.

On to U2A C27G A37C C55U, for which the yeast fitness is ≤ 0.5.

Regarding G10C C24U C29G G56A A65G C66A G68C, the yeast fitness is ≤ 0.5.

Take U2A G10A G17C U35C U47C C55G: the yeast fitness is ≤ 0.5.

Regarding C5G G9C G48C C49U, the yeast fitness is ≤ 0.5.

U19C G50A G56A: the yeast fitness worked out at 0.749.

With G12C U32G C33G A57U, the yeast fitness was ≤ 0.5.

Consider A36G A43C G63U, for which the yeast fitness is ≤ 0.5.

As to G6A G12C A37U, the yeast fitness is ≤ 0.5.

Regarding C5U A21G A42U U54G, the yeast fitness was determined as 0.533.

As to U13C U16C U35C G56C U64C, the yeast fitness is ≤ 0.5.

On to A20C A36C G50C U64G, for which the yeast fitness was ≤ 0.5.

Regarding A40U U54A, the yeast fitness was 0.576.

As for A20G G23A C30G C55U G63A, the yeast fitness is ≤ 0.5.

On to C11A U16C C31U A69U, for which the yeast fitness is ≤ 0.5.

Turning to A15C G17C C31A G44C G67C A69G, the yeast fitness is ≤ 0.5.

For the variant G6A C22G U47A C55U A65C, the yeast fitness was ≤ 0.5.

On to G18C C30G A70U, for which the yeast fitness is ≤ 0.5.

As for U8G A37G G44A A65C, the yeast fitness was ≤ 0.5.

Take U19A C27A C46A: the yeast fitness turned out to be 0.506.

C27G C31A C34A G38C C49G: the yeast fitness was ≤ 0.5.

(Values after the RNAGym collection of RNA variant scans (doi:10.1126/science.aae0568).)
